Source: article PMC10723409
Where two headings read alike, the source gives them in different places. Results are given in words; binding and its absence hold for the method and conditions named. In cells and extracts the contact can be indirect. These calls come from enrichment with a bait or labelling near it, and not all partners need be listed. Sequences can lack the tags named with a protein.

By UniProt entry, the sequences of proteins in these tests, tags left out. Residues count along the entry.
UniProt Q9Y2J2: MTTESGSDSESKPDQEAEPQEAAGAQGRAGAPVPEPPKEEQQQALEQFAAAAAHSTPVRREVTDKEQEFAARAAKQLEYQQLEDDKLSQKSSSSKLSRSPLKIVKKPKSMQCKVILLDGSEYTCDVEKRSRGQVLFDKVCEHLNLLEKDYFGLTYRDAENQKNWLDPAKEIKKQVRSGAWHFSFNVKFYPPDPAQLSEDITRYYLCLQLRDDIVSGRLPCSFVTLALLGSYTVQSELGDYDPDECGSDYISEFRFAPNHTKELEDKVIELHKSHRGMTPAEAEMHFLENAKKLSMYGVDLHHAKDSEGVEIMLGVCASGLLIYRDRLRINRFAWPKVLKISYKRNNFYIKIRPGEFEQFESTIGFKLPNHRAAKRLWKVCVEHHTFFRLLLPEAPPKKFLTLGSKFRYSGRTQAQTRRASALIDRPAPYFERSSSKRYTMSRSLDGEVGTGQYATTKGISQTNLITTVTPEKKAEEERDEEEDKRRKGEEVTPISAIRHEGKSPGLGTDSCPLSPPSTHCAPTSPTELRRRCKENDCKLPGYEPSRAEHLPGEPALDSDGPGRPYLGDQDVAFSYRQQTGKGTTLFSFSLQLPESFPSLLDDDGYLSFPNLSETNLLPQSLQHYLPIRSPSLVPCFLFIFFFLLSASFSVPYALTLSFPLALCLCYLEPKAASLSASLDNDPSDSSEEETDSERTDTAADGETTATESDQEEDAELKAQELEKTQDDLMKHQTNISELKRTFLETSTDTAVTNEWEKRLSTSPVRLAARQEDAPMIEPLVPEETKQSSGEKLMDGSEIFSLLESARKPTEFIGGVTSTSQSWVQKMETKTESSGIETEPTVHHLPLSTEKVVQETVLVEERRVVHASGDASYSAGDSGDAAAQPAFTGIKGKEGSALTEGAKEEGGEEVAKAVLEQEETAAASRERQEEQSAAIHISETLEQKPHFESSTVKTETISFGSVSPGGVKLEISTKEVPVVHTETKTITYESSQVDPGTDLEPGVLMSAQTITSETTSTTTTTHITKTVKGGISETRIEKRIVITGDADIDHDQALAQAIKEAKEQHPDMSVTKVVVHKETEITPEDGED
UniProt Q14126, residues 50-1118: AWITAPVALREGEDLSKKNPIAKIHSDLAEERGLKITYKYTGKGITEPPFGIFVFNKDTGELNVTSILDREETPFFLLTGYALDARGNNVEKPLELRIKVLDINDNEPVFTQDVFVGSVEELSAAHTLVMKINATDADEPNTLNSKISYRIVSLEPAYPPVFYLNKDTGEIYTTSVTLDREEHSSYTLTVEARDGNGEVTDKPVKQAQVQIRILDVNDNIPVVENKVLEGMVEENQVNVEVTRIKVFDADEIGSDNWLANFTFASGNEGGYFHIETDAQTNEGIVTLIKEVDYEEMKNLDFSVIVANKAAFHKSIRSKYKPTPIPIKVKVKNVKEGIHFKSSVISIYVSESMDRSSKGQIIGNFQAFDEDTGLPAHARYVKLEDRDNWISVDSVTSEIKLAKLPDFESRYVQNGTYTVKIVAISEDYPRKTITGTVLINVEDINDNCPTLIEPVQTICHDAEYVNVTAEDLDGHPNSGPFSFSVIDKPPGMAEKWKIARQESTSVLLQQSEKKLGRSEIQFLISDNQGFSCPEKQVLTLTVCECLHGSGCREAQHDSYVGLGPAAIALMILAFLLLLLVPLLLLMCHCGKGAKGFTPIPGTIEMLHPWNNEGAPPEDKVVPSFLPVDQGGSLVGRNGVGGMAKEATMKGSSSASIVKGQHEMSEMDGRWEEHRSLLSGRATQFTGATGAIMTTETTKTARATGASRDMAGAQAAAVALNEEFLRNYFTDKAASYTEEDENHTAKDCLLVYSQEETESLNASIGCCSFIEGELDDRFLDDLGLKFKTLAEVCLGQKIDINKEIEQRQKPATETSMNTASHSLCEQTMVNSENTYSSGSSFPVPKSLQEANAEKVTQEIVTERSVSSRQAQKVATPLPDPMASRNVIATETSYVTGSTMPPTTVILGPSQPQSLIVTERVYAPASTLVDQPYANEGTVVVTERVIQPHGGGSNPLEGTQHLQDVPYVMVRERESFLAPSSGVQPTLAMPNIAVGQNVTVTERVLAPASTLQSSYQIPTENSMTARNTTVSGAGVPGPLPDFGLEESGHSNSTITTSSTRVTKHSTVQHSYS
UniProt O43491: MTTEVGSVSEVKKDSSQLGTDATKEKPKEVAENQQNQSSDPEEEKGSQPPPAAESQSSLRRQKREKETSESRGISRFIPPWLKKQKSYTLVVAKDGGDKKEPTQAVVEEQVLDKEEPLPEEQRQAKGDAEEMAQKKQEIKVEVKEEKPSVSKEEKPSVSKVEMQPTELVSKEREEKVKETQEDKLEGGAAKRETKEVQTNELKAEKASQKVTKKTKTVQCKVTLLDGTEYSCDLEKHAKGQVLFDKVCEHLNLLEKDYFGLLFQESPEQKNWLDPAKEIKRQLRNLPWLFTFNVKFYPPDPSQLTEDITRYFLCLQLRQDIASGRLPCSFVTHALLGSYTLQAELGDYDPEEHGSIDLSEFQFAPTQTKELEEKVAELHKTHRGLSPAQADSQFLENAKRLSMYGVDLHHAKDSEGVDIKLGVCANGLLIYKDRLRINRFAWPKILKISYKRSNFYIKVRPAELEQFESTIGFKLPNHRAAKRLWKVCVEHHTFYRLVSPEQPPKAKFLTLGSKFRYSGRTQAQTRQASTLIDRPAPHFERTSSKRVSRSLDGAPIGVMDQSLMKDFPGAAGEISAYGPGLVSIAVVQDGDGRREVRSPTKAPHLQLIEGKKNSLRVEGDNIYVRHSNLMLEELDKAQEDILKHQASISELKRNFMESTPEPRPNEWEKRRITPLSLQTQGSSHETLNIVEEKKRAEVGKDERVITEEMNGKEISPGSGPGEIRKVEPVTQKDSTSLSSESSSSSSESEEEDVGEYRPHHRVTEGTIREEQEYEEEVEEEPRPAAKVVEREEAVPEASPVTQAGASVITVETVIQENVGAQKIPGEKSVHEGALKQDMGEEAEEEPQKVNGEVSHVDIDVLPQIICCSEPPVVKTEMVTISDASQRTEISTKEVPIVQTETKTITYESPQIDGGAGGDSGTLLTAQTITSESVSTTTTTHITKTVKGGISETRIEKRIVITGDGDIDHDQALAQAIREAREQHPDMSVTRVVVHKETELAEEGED

How the values were obtained:
Experiment in all cases: proximity labelling; APEX2-eGFP fusions of TMEM24 constructs expressed in HEK293 cells; 500 uM biotin tyramide 1 hr, 1 mM H2O2 1 min; biotinylated proteins purified on streptavidin magnetic beads; LC MS/MS with label free quantitation in triplicate; enrichment of the grouped TMEM24 full length, 1-630 and 1-666 samples against controls lacking a.a. 414-630
TMEM24(1–630)-APEX2-eGFP [1] = biological target: T1, TMEM24(1–630)-APEX2-eGFP (UniProt O14523)
T1 sequence: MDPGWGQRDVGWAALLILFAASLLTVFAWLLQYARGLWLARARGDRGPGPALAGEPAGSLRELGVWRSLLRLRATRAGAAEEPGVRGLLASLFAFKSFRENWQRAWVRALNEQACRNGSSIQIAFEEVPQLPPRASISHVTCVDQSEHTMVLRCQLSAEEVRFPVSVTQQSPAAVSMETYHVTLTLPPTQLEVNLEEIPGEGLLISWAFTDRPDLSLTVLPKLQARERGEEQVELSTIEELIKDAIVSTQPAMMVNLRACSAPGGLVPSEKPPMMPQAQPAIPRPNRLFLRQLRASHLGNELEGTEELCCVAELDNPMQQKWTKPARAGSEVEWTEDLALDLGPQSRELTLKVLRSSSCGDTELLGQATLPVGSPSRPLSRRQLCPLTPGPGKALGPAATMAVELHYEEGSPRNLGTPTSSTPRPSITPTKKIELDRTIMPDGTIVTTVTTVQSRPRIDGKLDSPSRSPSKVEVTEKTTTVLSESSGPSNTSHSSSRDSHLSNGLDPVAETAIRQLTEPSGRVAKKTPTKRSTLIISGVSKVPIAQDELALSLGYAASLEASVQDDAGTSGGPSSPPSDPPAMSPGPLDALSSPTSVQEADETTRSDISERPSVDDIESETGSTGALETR

TMEM24(1–666)-APEX2-eGFP [2] = biological target: T2, TMEM24(1–666)-APEX2-eGFP (UniProt O14523)
T2 sequence: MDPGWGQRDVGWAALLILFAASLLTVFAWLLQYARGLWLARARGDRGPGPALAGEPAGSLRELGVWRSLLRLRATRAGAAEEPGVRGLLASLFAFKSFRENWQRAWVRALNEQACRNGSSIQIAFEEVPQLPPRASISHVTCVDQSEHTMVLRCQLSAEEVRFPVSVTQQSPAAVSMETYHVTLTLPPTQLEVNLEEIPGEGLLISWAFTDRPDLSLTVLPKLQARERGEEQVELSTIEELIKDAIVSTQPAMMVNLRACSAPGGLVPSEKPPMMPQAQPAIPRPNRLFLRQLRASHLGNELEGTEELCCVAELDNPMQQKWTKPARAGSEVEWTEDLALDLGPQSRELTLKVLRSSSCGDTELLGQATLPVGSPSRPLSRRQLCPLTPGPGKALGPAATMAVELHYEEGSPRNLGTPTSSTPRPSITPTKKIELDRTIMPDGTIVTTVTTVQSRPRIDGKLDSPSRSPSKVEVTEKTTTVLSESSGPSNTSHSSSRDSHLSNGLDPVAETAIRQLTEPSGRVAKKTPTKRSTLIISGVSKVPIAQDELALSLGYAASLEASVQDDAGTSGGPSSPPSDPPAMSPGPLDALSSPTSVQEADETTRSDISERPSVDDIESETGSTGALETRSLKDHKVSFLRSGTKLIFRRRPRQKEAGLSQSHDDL

[3] = biological target: T3, TMEM24-APEX2-eGFP (full length TMEM24 fused to APEX2) (UniProt O14523)
T3 sequence: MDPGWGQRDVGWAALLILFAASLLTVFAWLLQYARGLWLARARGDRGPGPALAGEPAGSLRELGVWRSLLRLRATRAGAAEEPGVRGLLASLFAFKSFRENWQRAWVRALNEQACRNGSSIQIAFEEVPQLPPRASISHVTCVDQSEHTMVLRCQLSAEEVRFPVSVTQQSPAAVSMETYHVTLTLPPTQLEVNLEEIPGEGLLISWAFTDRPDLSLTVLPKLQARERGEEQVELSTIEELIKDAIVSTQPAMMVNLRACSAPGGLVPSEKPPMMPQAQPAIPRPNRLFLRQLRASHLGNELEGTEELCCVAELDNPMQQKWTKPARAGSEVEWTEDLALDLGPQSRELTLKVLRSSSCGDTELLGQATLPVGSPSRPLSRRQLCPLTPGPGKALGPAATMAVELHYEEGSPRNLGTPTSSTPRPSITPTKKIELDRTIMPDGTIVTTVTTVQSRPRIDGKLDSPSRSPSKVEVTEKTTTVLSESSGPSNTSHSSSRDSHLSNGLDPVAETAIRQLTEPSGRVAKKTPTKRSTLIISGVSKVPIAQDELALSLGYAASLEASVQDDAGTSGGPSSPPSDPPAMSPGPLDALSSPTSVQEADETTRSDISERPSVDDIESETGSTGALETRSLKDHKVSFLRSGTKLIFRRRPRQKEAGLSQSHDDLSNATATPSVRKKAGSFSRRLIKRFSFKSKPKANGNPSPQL

TMEM24(1–630)-APEX2-eGFP [4] = biological target: T1, TMEM24(1–630)-APEX2-eGFP; remark: listed apart in the source
TMEM24(1–666)-APEX2-eGFP [5] = biological target: T2, TMEM24(1–666)-APEX2-eGFP; remark: listed apart in the source
[6] = biological target: T3, TMEM24-APEX2-eGFP (full length TMEM24 fused to APEX2); remark: listed apart in the source

Measured: binding

band 4.1 protein 4.1B (from UniProt Q9Y2J2 1-1087)
binds: TMEM24(1–630)-APEX2-eGFP [1] | TMEM24(1–666)-APEX2-eGFP [2] | [3]

desmoglien-2 (DSG-2) (from UniProt Q14126 50-1118)
binds: TMEM24(1–630)-APEX2-eGFP [1] | TMEM24(1–666)-APEX2-eGFP [2] | [3]

band 4.1 protein 4.1G (from UniProt O43491 1-1005)
binds: TMEM24(1–630)-APEX2-eGFP [1] | TMEM24(1–666)-APEX2-eGFP [2] | [3]

B1: membrane palmitoylated protein 1 (MPP1) (protein, UniProt Q00013 1-466)
chain: MTLKASEGESGGSMHTALSDLYLEHLLQKRSRPEAVSHPLNTVTEDMYTNGSPAPGSPAQVKGQEVRKVRLIQFEKVTEEPMGITLKLNEKQSCTVARILHGGMIHRQGSLHVGDEILEINGTNVTNHSVDQLQKAMKETKGMISLKVIPNQQSRLPALQMFMRAQFDYDPKKDNLIPCKEAGLKFATGDIIQIINKDDSNWWQGRVEGSSKESAGLIPSPELQEWRVASMAQSAPSEAPSCSPFGKKKKYKDKYLAKHSSIFDQLDVVSYEEVVRLPAFKRKTLVLIGASGVGRSHIKNALLSQNPEKFVYPVPYTTRPPRKSEEDGKEYHFISTEEMTRNISANEFLEFGSYQGNMFGTKFETVHQIHKQNKIAILDIEPQTLKIVRTAELSPFIVFIAPTDQGTQTEALQQLQKDSEAIRSQYAHYFDLSLVNNGVDETLKKLQEAFDQACSSPQWVPVSWVY
binds: TMEM24(1–630)-APEX2-eGFP [4] | TMEM24(1–666)-APEX2-eGFP [5] | [6]
